No constants are given. Whether binding was seen depends on the method and setting. In cells and extracts the contact can be indirect. Some results given as binding are weak or reduced against the parent protein; the word gives no strength.
Molecular target: NR4A2 nuclear receptor, MYC-tagged (MYC-NR4A2) (UniProt P43354)
Assay: co-IP; COS-1 cells transfected with MYC-NR4A2 and FLAG-PARP1, mock treated or UV irradiated; protein extracts collected 4 hours post UV; precipitated with anti-MYC antibody, immunoblotted with anti-FLAG antibody

The chains behind the UniProt entries cited, without tags or fusion partners.
UniProt P43354: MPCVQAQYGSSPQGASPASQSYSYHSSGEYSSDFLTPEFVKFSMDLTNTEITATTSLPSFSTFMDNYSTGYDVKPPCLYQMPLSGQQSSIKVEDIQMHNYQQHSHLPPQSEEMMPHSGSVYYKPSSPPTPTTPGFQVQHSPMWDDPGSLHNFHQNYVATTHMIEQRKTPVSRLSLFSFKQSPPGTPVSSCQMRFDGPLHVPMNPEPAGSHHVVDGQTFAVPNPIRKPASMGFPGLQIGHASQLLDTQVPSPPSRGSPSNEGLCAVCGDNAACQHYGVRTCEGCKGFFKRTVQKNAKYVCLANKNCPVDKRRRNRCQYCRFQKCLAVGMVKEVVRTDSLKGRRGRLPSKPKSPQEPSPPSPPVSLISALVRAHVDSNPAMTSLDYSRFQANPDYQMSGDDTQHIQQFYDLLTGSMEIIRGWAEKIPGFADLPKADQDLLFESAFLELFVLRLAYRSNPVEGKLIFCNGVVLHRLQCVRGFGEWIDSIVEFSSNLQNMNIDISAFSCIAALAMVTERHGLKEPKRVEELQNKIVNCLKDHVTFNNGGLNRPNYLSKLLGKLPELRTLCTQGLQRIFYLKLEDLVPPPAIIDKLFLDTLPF
UniProt P09874: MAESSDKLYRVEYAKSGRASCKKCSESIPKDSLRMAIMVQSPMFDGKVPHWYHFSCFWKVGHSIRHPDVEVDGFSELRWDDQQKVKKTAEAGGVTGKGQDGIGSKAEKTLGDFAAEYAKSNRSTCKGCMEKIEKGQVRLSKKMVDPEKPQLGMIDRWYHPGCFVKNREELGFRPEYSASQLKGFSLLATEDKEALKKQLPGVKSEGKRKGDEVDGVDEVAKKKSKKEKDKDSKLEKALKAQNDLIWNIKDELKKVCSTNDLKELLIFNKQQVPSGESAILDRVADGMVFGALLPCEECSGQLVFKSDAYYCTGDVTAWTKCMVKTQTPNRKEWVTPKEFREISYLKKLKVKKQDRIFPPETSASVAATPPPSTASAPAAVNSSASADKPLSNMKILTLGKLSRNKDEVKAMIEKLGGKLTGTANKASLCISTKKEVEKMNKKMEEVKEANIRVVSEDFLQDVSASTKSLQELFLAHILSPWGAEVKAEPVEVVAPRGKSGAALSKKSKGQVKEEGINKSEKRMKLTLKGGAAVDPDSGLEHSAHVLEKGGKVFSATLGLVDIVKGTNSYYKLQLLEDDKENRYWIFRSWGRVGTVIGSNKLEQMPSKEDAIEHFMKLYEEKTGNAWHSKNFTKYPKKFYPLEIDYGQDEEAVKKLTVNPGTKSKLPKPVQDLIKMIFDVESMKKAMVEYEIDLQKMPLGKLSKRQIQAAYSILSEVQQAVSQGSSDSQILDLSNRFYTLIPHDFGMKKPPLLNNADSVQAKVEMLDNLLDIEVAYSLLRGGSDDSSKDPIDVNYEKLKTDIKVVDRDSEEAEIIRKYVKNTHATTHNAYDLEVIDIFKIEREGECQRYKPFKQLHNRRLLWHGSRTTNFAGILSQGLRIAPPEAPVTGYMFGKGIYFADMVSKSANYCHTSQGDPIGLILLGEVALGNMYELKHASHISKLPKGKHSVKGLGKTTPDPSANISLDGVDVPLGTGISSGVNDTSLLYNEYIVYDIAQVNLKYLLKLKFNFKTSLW

binding: binds
Substance: PARP1, FLAG-tagged (FLAG-PARP1) (from UniProt P09874 1-1014)

Reference: PMC3819332
